The text below walks through data of publication PMC12431657, “Discovery and mechanistic insights of dibenzoylmethane as a broad spectrum inhibitor of coronavirus” (PLOS Pathogens, 2025).

Counter-ions that a name gives are not always drawn. Like-named read-outs stand apart in the source and are kept apart here. The campaign covered roughly 3,300 compounds. About 60 (2%) showed an effect of 50% or more. The list shows a part of the results.

For the test, the system named is HCoV-OC43. Also on record: species or system RD; HTS, protection from HCoV-OC43 induced cell death, luminescent cell viability (CellCounting-Lite 2.0), inhibition rate. As to conditions: 24 h post infection, 1 h compound pre-incubation, 10 µM, inhibitor.

As for `Nc1[nH]cnc2ncnc1-2` [Adenine], the “OC43 Inhibition rate” value (OC43 Inhibition rate, 24 h) worked out at 1.2%.
Regarding `COc1ccc2cc1Oc1ccc(cc1)C[C@H]1c3cc(c(OC)cc3CCN1C)Oc1c(OC)c(OC)cc3c1[C@H](C2)N(C)CC3` [tetrandrine], the “OC43 Inhibition rate” value is on record as 79.7%.
Turning to `Sc1nc2ccccc2s1` [2-Mercaptobenzothiazole], the “OC43 Inhibition rate” value came out at 0.3%.
Same read-out and setting: the figure for `O=C(O)CNC(=O)c1cccnc1` [Nicotinuric acid] is -0.3%; for `CCCCCC/C=C/CCCCCCCCCC(=O)O` [trans-Vaccenic acid] it is -0.2%.
Same read-out and setting: the value for `COc1cc(/C=C/c2ccccc2)oc(=O)c1` [Desmethoxyyangonin] was 3.4%.
`Cc1coc2c1C(=O)C(=O)c1c-2ccc2c(C)cccc12` [Tanshinone I]: the “OC43 Inhibition rate” value amounted to 2.5%.
Consider `C[C@@]12C[C@@]3(O)O[C@@H](O1)[C@]1(COC(=O)c4ccccc4)[C@H]3C[C@@]12O[C@@H]1O[C@H](CO)[C@@H](O)[C@H](O)[C@H]1O` [Paeoniflorin], for which the “OC43 Inhibition rate” value is on record as -2.8%.
For `C[C@H](CC[C@@H](O)C(C)(C)O)[C@H]1CC[C@@]2(C)[C@@H]3CC=C4[C@@H](CC[C@H](O[C@@H]5O[C@H](CO)[C@@H](O)[C@H](O)[C@H]5O)C4(C)C)[C@]3(C)[C@H](O)C[C@]12C` [Mogroside I E1], the “OC43 Inhibition rate” value is listed as -1.8%.
Regarding `C[C@]12CC[C@@H]3c4ccc(OS(=O)(=O)O)cc4CC[C@H]3[C@@H]1CCC2=O` [Estrone sulfate (sodium)], the “OC43 Inhibition rate” value (OC43 Inhibition rate, 24 h) turned out to be 0.2%.
For the compound `COc1ccc(-c2coc3cc(O[C@@H]4O[C@H](CO[C@@H]5OC[C@@H](O)[C@H](O)[C@H]5O)[C@@H](O)[C@H](O)[C@H]4O)c(OC)c(O)c3c2=O)cc1` [Kakkalide], the “OC43 Inhibition rate” value is reported as -0.1%.
The same measure, in the same setting: the figure for `CC/C=C\C/C=C\C/C=C\C/C=C\C/C=C\CCCCCC(=O)O` [Docosapentaenoic acid (22n-3)] is 1.3%.
`COc1ccc2[nH]cc(CCO)c2c1` [5-Methoxytryptophol]: the “OC43 Inhibition rate” value was -1.4%.
Turning to `C[C@H](CC[C@@H](O[C@@H]1O[C@H](CO[C@@H]2O[C@H](CO)[C@@H](O)[C@H](O)[C@H]2O)[C@@H](O)[C@H](O)[C@H]1O)C(C)(C)O)[C@H]1CC[C@@]2(C)[C@@H]3CC=C4[C@@H](CC[C@H](O[C@@H]5O[C@H](CO)[C@@H](O)[C@H](O)[C@H]5O)C4(C)C)[C@]3(C)[C@H](O)C[C@]12C` [Mogroside III], the “OC43 Inhibition rate” value is on record as -0.2%.
With `O=C(O)CC(O)(CC(=O)OCc1ccc(O[C@@H]2O[C@H](CO)[C@@H](O)[C@H](O)[C@H]2O)cc1)C(=O)O` (stereo partly shown) [Parishin E], the “OC43 Inhibition rate” value is -0.4%.
`CC(C)(c1ccc(O)cc1)c1ccc(O)cc1` [Bisphenol A]: the “OC43 Inhibition rate” value is 3.4%.
On the same count and under the same terms, the figure for `CCCCCCCCCCCCCCCCCCCO` [1-Nonadecanol] is -1.1%.
With `C[N+](C)(C)[O-]` [Trimethylamine N-oxide (dihydrate)], the “OC43 Inhibition rate” value (OC43 Inhibition rate, 24 h) is reported as -1.8%.
Take `Nc1nc(=O)c2c([nH]1)NC[C@@H](CNc1ccc(C(=O)N[C@@H](CCC(=O)O)C(=O)O)cc1)N2C=O` [Folinic acid]: the “OC43 Inhibition rate” value turned out to be 0.1%.
Consider `CN[C@H]1C[C@@H](N)[C@H](O)[C@@H](O[C@@H]2O[C@H](CO)[C@H](O)[C@@H]3OC4(O[C@H]23)O[C@H]([C@@H](N)CO)[C@H](O)[C@H](O)[C@H]4O)[C@@H]1O` (stereo partly shown) [Hygromycin B], for which the “OC43 Inhibition rate” value is reported as -0.1%.
Consider `O=C(O)C[C@@H]1C(=O)O[C@H]2[C@H](OC(=O)c3cc(O)c(O)c(O)c3)[C@@H](OC(=O)c3cc(O)c(O)c4c3[C@H]1[C@@H](O)C(=O)O4)[C@H](OC(=O)c1cc(O)c(O)c(O)c1)O[C@@H]2COC(=O)c1cc(O)c(O)c(O)c1` [Chebulinic acid], for which the “OC43 Inhibition rate” value is on record as -0.1%.
Still for that read-out and setting: the value for `C=C1[C@H]2CC[C@@H]3[C@H]2C(C)(C)CCC[C@]13C` [(+)-Longifolene] was -0.1%; that for `CC(=O)c1ccc(O)c(C)c1` [4'-Hydroxy-3'-methylacetophenone] was -1.5%.
As to `OC[C@H]1NCC[C@@H](O)[C@@H]1O` [Fagomine], the “OC43 Inhibition rate” value was -2.4%.
Regarding `O=c1[nH]c(=O)c2nccnc2[nH]1` [Pteridine-2,4(1H,3H)-dione], the “OC43 Inhibition rate” value is 1.8%.
Take `CC(=O)c1c(O)c(C)c(O)c(Cc2c(O)c3c(c(C(=O)/C=C/c4ccccc4)c2O)OC(C)(C)C=C3)c1O` [Rottlerin]: the “OC43 Inhibition rate” value is given as -5%.
For the compound `CCCCC[C@@H](O)[C@H]1C(=O)O[C@H](C)[C@@H](O)/C=C/C=C/C=C/C=C/C=C(\C)[C@@H](O)[C@H](O)[C@H](O)C[C@H](O)C[C@H](O)C[C@H](O)C[C@H](O)C[C@@H]1O` [Lagosin], the “OC43 Inhibition rate” value was 0.1%.
Turning to `CCCCCCCCC=O` [Nonanal], the “OC43 Inhibition rate” value came out at 0.7%.
Take `O[C@H]1[C@H]2c3cc4c(cc3CN3CCC(=C[C@@H]1O)[C@H]23)OCO4` [Lycorine]: the “OC43 Inhibition rate” value is listed as 60.9%.
`COc1cc(/C=C/C(=O)OC2[C@H](O)CC(O)(C(=O)O)C[C@H]2O)ccc1O` (stereo partly shown) [4-Feruloylquinic acid]: the “OC43 Inhibition rate” value is on record as 10.6%.
The same measure, in the same setting: the figure for `C[C@@H]1O[C@@H](O[C@H]2[C@H](Oc3cc(O)c(C(=O)CCc4ccc(O)cc4)c(O)c3)O[C@H](CO)[C@@H](O)[C@@H]2O)[C@H](O)[C@H](O)[C@H]1O` [Naringin Dihydrochalcone] is -0.1%; for `Cc1cc(O)cc2c1O[C@](C)(CCC[C@H](C)CCC[C@H](C)CCCC(C)C)CC2` [Delta-Tocopherol] it is 9.4%.
With `C[C@@H]1CC(=O)c2c(ccc3c2C(=O)c2cccc(O)c2C3=O)C1` [Ochromycinone], the “OC43 Inhibition rate” value worked out at 2.1%.
Still for that read-out and setting: the value for `CC(=O)NCCCCNCCCN` [N8-Acetylspermidine dihydrochloride] was -1%; that for `C=C1C(=O)O[C@@H]2C[C@@]3(C)CCC[C@H](C)C3=C[C@H]12` [Alantolactone] was -14.1%.
On to `O=CN1C[C@@H]2C[C@H](C1)c1cccc(=O)n1C2` [N-Formylcytisine], for which the “OC43 Inhibition rate” value is -0.5%.
As to `c1c2c(cc3c1OCO3)-c1cc3ccc4c(c3c[n+]1CC2)OCO4` [Coptisine (Sulfate)], the “OC43 Inhibition rate” value (OC43 Inhibition rate, 24 h) was -0.1%.
Consider `NCc1c[nH]c2ccccc12` [Indole-3-methanamine], for which the “OC43 Inhibition rate” value was determined as 7%.
For the compound `Oc1cc(O)cc(/C=C/c2ccc(O)cc2O)c1` [Oxyresveratrol], the “OC43 Inhibition rate” value came out at 0.3%.
Take `O=c1oc2cc(O)ccc2c2oc3cc(O)ccc3c12` [Coumestrol]: the “OC43 Inhibition rate” value amounted to 0.2%.
Consider `CN[C@H](CC(C)C)C(=O)N[C@H]1C(=O)N[C@@H](CC(N)=O)C(=O)N[C@H]2C(=O)N[C@H]3C(=O)N[C@H](C(=O)N[C@H](C(=O)O)c4cc(O)cc(O)c4-c4cc3ccc4O)[C@H](O)c3ccc(c(Cl)c3)Oc3cc2cc(c3O[C@@H]2O[C@H](CO)[C@@H](O)[C@H](O)[C@H]2O[C@H]2C[C@](C)(N)[C@H](O)[C@H](C)O2)Oc2ccc(cc2Cl)[C@H]1O` [Vancomycin], for which the “OC43 Inhibition rate” value (OC43 Inhibition rate, 24 h) is on record as 0.1%.
On to `O=c1c(O)c(-c2ccc(O)c(O)c2)oc2cc(O)c(O)c(O)c12` [Quercetagetin], for which the “OC43 Inhibition rate” value is recorded as 2%.
Same read-out and setting: the value for `COc1ccc(C(=O)/C=C/c2ccccc2)cc1` [4'-Methoxychalcone] was -2.1%; that for `COC1=C2C[C@@H](C)C[C@H](OC)[C@H](O)[C@@H](C)/C=C(\C)[C@H](OC(N)=O)[C@@H](OC)/C=C\C=C(/C)C(=O)NC(=CC1=O)C2=O` [Geldanamycin] was -1.7%.
The same measure, in the same setting: the value for `C[C@@H]1CC[C@@H]2O[C@@]23C(=O)C(=O)[C@@H]2[C@@H](C2(C)C)[C@@]13C` [Kanshone C] was 5.9%.
With `Nc1[nH]cnc2ncnc1-2` [Adenine monohydrochloride hemihydrate], the “OC43 Inhibition rate” value (OC43 Inhibition rate, 24 h) is reported as 0%.
Turning to `NCCc1c[nH]cn1` [Histamine (dihydrochloride)], the “OC43 Inhibition rate” value (OC43 Inhibition rate, 24 h) turned out to be 0%.
Turning to `C[N+]1(C)CCC[C@H]1C(=O)[O-]` [Stachydrine], the “OC43 Inhibition rate” value (OC43 Inhibition rate, 24 h) is reported as 2.9%.
Consider `COc1cc2oc(-c3ccc(O)cc3)cc(=O)c2c(O)c1[C@@H]1O[C@H](CO)[C@@H](O)[C@H](O)[C@H]1O[C@@H]1O[C@H](CO)[C@@H](O)[C@H](O)[C@H]1O` [Spinosin], for which the “OC43 Inhibition rate” value is recorded as -0.4%.
For `O[C@H]1[C@H](O)[C@H](O)[C@@H](O)[C@H](O)[C@H]1O` [D-chiro-Inositol], the “OC43 Inhibition rate” value was -0.1%.
Consider `CC1(C)C=CC(=O)C1` [4,4-Dimethyl-2-cyclopenten-1-one], for which the “OC43 Inhibition rate” value is reported as -0.9%.
In the case of `CN1[C@@H](CC(=O)c2ccccc2)CCC[C@H]1C[C@H](O)c1ccccc1` [Lobeline (hydrochloride)], the “OC43 Inhibition rate” value turned out to be 40.9%.
For the compound `C=C1C[C@]23C[C@@]1(O)CC[C@H]2[C@@]12C=C[C@H](O)[C@@](C)(C(=O)O1)[C@H]2[C@@H]3C(=O)O` [Gibberellic acid], the “OC43 Inhibition rate” value is reported as 0.6%.
Take `COc1cc(/C=C/C(=O)O)cc(O)c1O` [5-Hydroxyferulic acid]: the “OC43 Inhibition rate” value is 2.7%.
Still for that read-out and setting: the figure for `CC(C)=CCc1c(O[C@@H]2O[C@H](CO)[C@@H](O)[C@H](O)[C@H]2O)cc(O)c2c(=O)c(O[C@@H]3O[C@@H](C)[C@H](O)[C@@H](O)[C@H]3O)c(-c3ccc(O)cc3)oc12` [Epimedoside A] is 1%; for `CC1=C(CC[C@H](C)CO[C@@H]2O[C@H](CO)[C@@H](O)[C@H](O)[C@H]2O)O[C@H]2C[C@H]3[C@@H]4CC[C@@H]5C[C@@H](O[C@@H]6O[C@H](CO)[C@H](O)[C@H](O)[C@H]6O[C@@H]6O[C@H](CO)[C@@H](O)[C@H](O)[C@H]6O)CC[C@]5(C)[C@H]4CC[C@]3(C)[C@@H]12` [Timosaponin B III] it is -1.6%.
In the case of `O=c1c2cc(O)c(O)cc2oc2cc(O)c([C@@H]3O[C@H](CO)[C@@H](O)[C@H](O)[C@H]3O)c(O)c12` [Mangiferin], the “OC43 Inhibition rate” value is reported as -0.4%.
For the compound `CCCCCCCCCCCCO` [1-Dodecanol], the “OC43 Inhibition rate” value is listed as -0.8%.
